These are yes or no findings as the source states them, for the method shown. In cells and extracts the contact can be indirect. Some results given as binding are weak or reduced against the parent protein; the word gives no strength.

Chains of the proteins cited; added tags and fusions are not shown.
UniProt P10415: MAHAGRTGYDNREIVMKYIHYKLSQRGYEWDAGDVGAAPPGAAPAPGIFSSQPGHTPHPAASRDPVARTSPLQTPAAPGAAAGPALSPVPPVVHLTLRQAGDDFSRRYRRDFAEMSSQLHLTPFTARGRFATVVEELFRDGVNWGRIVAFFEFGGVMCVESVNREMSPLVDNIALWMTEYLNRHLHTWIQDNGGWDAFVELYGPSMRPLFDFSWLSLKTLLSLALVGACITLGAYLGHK
UniProt Q14457: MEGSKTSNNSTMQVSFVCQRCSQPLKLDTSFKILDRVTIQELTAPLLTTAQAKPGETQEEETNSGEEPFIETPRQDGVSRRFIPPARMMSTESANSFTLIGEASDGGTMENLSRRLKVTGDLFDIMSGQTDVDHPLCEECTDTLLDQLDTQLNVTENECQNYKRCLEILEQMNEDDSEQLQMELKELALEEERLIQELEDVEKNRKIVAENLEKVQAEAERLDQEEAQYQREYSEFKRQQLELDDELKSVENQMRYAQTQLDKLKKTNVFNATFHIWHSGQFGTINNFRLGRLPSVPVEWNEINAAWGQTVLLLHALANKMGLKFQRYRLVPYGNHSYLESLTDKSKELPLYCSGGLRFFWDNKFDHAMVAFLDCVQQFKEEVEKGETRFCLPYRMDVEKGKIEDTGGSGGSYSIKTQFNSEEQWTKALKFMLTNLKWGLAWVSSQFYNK

The test deals with Bcl-2 (human (endogenous in Huh7)) (UniProt P10415). Briefly: co-IP.

For Beclin 1 (from UniProt Q14457 1-450), the binding result is reported as “binds”.
